# Data: paper PMC7347206, “Characterization of a long-term mouse primary liver 3D tissue model recapitulating innate-immune responses and drug-induced liver toxicity” (PLoS ONE, 2020)
# Tested on: mouse primary hepatocyte 3D liver spheroids
# Details: 8 days repeated vs 48 h single
# Method: To avoid increased evaporation, a humidified lid (Labcyte, USA), filled with PBS, was placed on each plate. […] From day 4 on, 50% of the medium was replaced daily with serum-free maintenance medium (WME with Cell Maintenance Supplement Pack (Thermo Fisher Scientific, USA)).
# Compounds were obtained from Sigma-Aldrich if not otherwise stated. […] Toxicity treatment started on day 7 with re-dosing every second day. On the first day of exposure, 50 μl of the cell culture media was removed and 50 μl of fresh cell culture media containing the compound solution was added to the well to achieve the desired concentration. For redosing, 50 μl of cell culture media was replaced with fresh compound-containing cell culture media. […] The dose-response curves were plotted, and IC50 values were calculated using Graph-Pad Prism.
# Drug-induced liver injury (DILI) is a major concern in drug development, which often cannot be predicted in vitro due to inherent limitations of 2D hepatocyte cultures, including short-term viability and decreased functionality. […] The spheroids either experienced a single treatment and were analyzed after 48 hours (Fig 3A–3G, 48 h), or they were repeatedly treated every 2 days and analyzed at day 8 (Fig 3A–3G, 8 days). In both cases, ATP content was used as a viability marker.
compound,measurement,value
CN(C)[C@@H]1C(O)=C(C(N)=O)C(=O)[C@@]2(O)C(O)=C3C(=O)c4c(O)cccc4[C@@](C)(O)[C@H]3C[C@@H]12 [Tetracycline],IC50 lower upon repeated treatments as compared to single treatments,10 fold
O=P1(N(CCCl)CCCl)NCCCO1 (stereo not drawn) [Cyclophosphamide],IC50 lower upon repeated treatments as compared to single treatments,10 fold
O=C(O)Cc1ccccc1Nc1c(Cl)cccc1Cl [Diclofenac],IC50 lower upon repeated treatments as compared to single treatments,10 fold
